# Measured values published in PMC7862700.
# The entries are a selection whose mix differs from that of the whole data set. At the low end of the ranking the order means little.
# Target: T1, GABPA (UniProt Q06546)
# T1 sequence: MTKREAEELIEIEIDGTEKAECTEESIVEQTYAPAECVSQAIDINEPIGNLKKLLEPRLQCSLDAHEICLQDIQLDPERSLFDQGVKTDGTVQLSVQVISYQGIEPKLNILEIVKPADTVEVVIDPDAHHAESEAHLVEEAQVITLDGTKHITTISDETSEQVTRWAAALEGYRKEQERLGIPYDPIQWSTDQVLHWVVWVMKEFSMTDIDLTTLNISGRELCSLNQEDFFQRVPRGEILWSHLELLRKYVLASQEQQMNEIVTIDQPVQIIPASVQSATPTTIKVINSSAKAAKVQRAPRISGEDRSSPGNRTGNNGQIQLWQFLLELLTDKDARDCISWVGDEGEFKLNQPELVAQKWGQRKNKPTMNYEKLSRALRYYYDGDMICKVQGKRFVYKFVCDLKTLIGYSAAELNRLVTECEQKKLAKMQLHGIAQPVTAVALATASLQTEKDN
# Experiment: DAPPL (digital affinity profiling via proximity ligation, sequencing)
# Settings: 10 mM Tris-HCl pH 7.5, 50 mM NaCl, 1 mM DTT, 4% glycerol, room temperature, 30 min; GST-TFs on glutathione beads, 16-mer random dsDNA library, 0.1% …; high values mean tight binding; double strand, one strand shown; scale: fold enrichment (6-mer frequency, TF over GST control)
row,Sequence,binding signal
1,TGCAGA,0.977
2,CATTAT,1.06
3,CCAAGA,0.977
4,AGAAGA,0.939
5,AGTGCC,0.996
6,CATCGT,0.955
7,AGATCT,0.922
8,CCAAGT,0.922
9,AGGAAT,0.749
10,TCATCG,0.942
11,AGAACC,0.885
12,AACCGA,0.995
13,GTAGAA,0.865
14,GAATGG,0.983
15,GACCAA,1.04
16,TCGAAA,0.941
17,AGGGTT,0.964
18,AGGGCT,1.05
19,TTGAGA,0.88
20,ACAGAA,0.997

row,Sequence,binding signal
1,TCCAGA,0.862
2,GCCAGA,0.678
3,TAGGTA,0.993
4,GTGGTC,0.803
5,AGATAT,0.911
6,GGCTGC,0.983
7,AGAAGG,0.718
8,TAATCG,1.14
9,CAGAAA,0.936
10,GTTCAG,0.898
11,GAATAG,0.95
12,GCTAAC,0.983
13,CCCACT,1.26
14,GCCGCT,0.985
15,GCGATT,0.922
16,ACTGAT,1.27
17,TATTTA,1.39
18,TTGGGA,0.988
19,AGACTT,1.03

# Part of the list above, with bars between the fields.
row | Sequence | binding signal
8 | CCAAGT | 0.922
9 | AGGAAT | 0.749
10 | TCATCG | 0.942
